Results are given in words; binding and its absence hold for the method and conditions named. Some entries that bind do so weakly or less than the wild type.
Target: T1, human CC chemokine receptor 6 (huCCR6) (human) (UniProt P51684)
T1 sequence: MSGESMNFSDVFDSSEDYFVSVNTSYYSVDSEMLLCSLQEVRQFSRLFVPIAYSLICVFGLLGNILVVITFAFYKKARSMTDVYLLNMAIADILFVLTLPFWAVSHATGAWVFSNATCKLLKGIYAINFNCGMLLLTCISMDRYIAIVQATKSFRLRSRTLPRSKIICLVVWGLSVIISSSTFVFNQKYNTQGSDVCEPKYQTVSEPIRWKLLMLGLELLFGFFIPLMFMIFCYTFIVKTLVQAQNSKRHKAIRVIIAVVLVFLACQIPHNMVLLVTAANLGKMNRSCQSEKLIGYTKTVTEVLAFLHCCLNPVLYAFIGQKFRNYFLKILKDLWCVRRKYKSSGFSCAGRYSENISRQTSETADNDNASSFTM
Experiment: flow cytometry on cells; competitive binding: 100,000 huCCR6-CHO cells pre-incubated with unlabeled huCCL20 (8 μg/mL) for 15 min at 4°C in 100 μL binding buffer (PBS, 0.5% BSA, 0.1% NaN3), then AF647-huCCL20 at 80 ng/mL for 30 min at 4°C; binding without competitor set to 100%; only the binder purified

Chains of the proteins cited; added tags and fusions are not shown. Residues count along the entry.
UniProt P78556, residues 27-96: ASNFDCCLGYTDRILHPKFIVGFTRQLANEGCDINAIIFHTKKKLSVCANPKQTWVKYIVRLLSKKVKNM

Substance | binding
huCCL20 (unlabeled) (from UniProt P78556 27-96) (ligand) | binds
Alexa Fluor 647-conjugated huCCL20 (from UniProt P78556 27-96) (ligand) | binds

From PMC4919008
